{
  "source": "PubChem BioAssay AID485314",
  "about": "(National Center for Advancing Translational Sciences (NCATS), 2010)",
  "note": "Among all 340,000 compounds or so, about 4,500 (1.3%) were called active. The shares of active, inactive and inconclusive entries below differ from those in the screen. The call rests on the fitted dose curve; in most records, active means well fitted inhibition curve with a large enough effect; inconclusive means small, poorly fitted or top-dose-only effect, or another doubt; inactive means no such curve, though single readings can be large or run the other way. Potencies of inconclusive entries are doubtful fits and often do not repeat. On the % scale 0 is the no-effect control and ±100 the full control effect; potency means the concentration at half of the fitted maximal effect.",
  "data": [
    {"target": "DNA polymerase beta (Homo sapiens) (UniProt P06746)", "experiment": "qHTS Assay for Inhibitors of DNA Polymerase Beta", "conditions": "Pol beta primer extension/strand displacement, fluorescence kinetic; activity change, negative = inhibition: at 114 µM (top of the series)", "method_in_brief": "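Pol beta (10 nM) and compounds were preincubated 15 min at room temperature, then 50 nM substrate (final) started primer extension/strand displacement. Reads were taken at 0 and 10 min; concentration-response data were fitted to a four-parameter Hill equation.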", "values": [
      {"smiles": "O=C(O)CCC(=O)Nc1nnc(C(F)(F)F)s1", "Potency": "inconclusive: 0.1 µM [inhibitor, full curve, poor fit]"},
      {"smiles": "O=C(NCc1ccco1)c1ccc(COc2ccccc2Cl)cc1", "Potency": "inconclusive: 31.6 µM [inhibitor, full curve, poor fit]"},
      {"smiles": "Cc1cc(C)c(NC(=O)COC(=O)Cc2ccsc2)c(C)c1", "Potency": "inconclusive: 0.158 µM [inhibitor, full curve, poor fit]"},
      {"smiles": "Cc1ccc(C(=O)NCC(=O)O)o1", "Potency": "inconclusive: 3.16 µM [inhibitor, partial curve, poor fit]"},
      {"smiles": "COC(=O)C1ON2OC(C(=O)OC)C(C(=O)OC)C2C1CC(C)=O", "note": "(configuration not stated)", "Potency": "inconclusive: 44.7 µM [inhibitor, partial curve, poor fit]"},
      {"smiles": "O=C(COc1ccc(Cl)cc1)NCC(=O)N/N=C/c1cccs1", "Potency": "inconclusive: 28.2 µM [inhibitor, full curve, poor fit]"},
      {"smiles": "CC(=O)c1ccc(OCC(O)COc2ccc(C(C)=O)cc2)cc1", "Potency": "inconclusive: 22.4 µM [inhibitor, single point]"},
      {"smiles": "O=C(CCC(=O)NC1CCCCC1)N/N=C/c1ccncc1", "Potency": "inconclusive: 89.1 µM [inhibitor, single point]"},
      {"smiles": "O=C(O)c1ccccc1Cc1nc2cc(Cl)ccc2c(=O)[nH]1", "Potency": "inconclusive: 25.1 µM [inhibitor, single point]"},
      {"smiles": "Cc1ccc(-c2cc3c(n2-c2ccc(C(=O)O)cc2)CCCC3=O)cc1", "activity change, negative = inhibition": "inactive: 42.3%"},
      {"smiles": "Cn1c(=O)c2c(SCC(=O)NCc3ccco3)nc(-c3ccccc3)nc2n(C)c1=O", "activity change, negative = inhibition": "inactive: -0.446%"},
      {"smiles": "CC(C)(C)N1C(=O)c2ccc(C(=O)Nc3ccc(-c4nc5ccccc5[nH]4)cc3)cc2C1=O", "Potency": "inconclusive: 44.7 µM [inhibitor, partial curve]"},
      {"smiles": "Cc1cc(C)c(C#N)c(N2CCN(Cc3ccccc3)CC2)n1", "Potency": "inconclusive: 89.1 µM [inhibitor, single point]"},
      {"smiles": "CCOC(=O)c1ccc(NC(=O)Nc2c[nH]c(=O)[nH]c2=O)cc1", "Potency": "inconclusive: 25.1 µM [inhibitor, single point]"},
      {"smiles": "O=C(CSc1nncs1)NC(=O)NCc1ccco1", "Potency": "inconclusive: 44.7 µM [inhibitor, partial curve, poor fit]"},
      {"smiles": "C=CCn1c(=NC(=O)c2sc3ccccc3c2Cl)sc2cc(S(N)(=O)=O)ccc21", "Potency": "active: 8.91 µM"},
      {"smiles": "CCOC(=O)c1[nH]c(C)c(C(=O)Nc2ccccc2F)c1C", "activity change, negative = inhibition": "inactive: -24%"},
      {"smiles": "Cc1ccc(C)n1Cc1ccc(C(=O)O)cc1", "Potency": "active: 2.82 µM"},
      {"smiles": "Oc1ccc(/C=N/NC(=S)Nc2cccnc2)c(O)c1", "activity change, negative = inhibition": "inactive: 11.1%"},
      {"smiles": "CCCCCn1c(SCc2cccc(C)c2)nc2c1c(=O)[nH]c(=O)n2C", "Potency": "inconclusive: 0.631 µM [inhibitor, full curve, poor fit]"},
      {"smiles": "CCOC(=O)N1CCN(S(=O)(=O)c2cc(Br)cc3c2N(C(=O)CC)CC3)CC1", "Potency": "inconclusive: 89.1 µM [inhibitor, single point]"},
      {"smiles": "CC1(C)CC(=O)C(CC2=C(O)CC(C)(C)CC2=O)=C(O)C1", "Potency": "inconclusive: 0.891 µM [inhibitor, full curve, poor fit]"},
      {"smiles": "COc1cc(/C=C/c2cccc[n+]2C)ccc1OCC(=O)Nc1cccc(Cl)c1", "Potency": "active: 39.8 µM"},
      {"smiles": "CC1C(=O)N2CCCc3cc(S(=O)(=O)N4CCN(c5ccc(F)cc5)CC4)cc1c32", "note": "(configuration not stated)", "Potency": "inconclusive: 0.126 µM [inhibitor, full curve, poor fit]"},
      {"smiles": "Cc1cc(C)cc(NS(=O)(=O)c2ccc(Oc3ncc(C(F)(F)F)cc3Cl)cc2)c1", "Potency": "inconclusive: 56.2 µM [inhibitor, partial curve, poor fit]"},
      {"smiles": "CCn1ncc(/C=N\\NC(=O)COc2cc(C)cc(C)c2)c1C", "Potency": "inconclusive: 56.2 µM [inhibitor, partial curve, poor fit]"},
      {"smiles": "O=C(Nc1cccc(-c2nc3ccccc3o2)c1)c1ccc(-c2ccc(Br)cc2)o1", "Potency": "inconclusive: 12.6 µM [inhibitor, single point]"},
      {"smiles": "O=C(Cc1cccc2ccccc12)N/N=C/c1ccc(O)c([N+](=O)[O-])c1", "Potency": "inconclusive: 63.1 µM [inhibitor, single point]"},
      {"smiles": "CCOC(=O)N1CCN(C(=O)c2cccn3c(=O)c4cc(Br)ccc4nc23)CC1", "Potency": "inconclusive: 50.1 µM [inhibitor, single point]"},
      {"smiles": "O=C(NNC(=O)c1cc2ccccc2o1)c1ccc(Cl)cc1", "activity change, negative = inhibition": "inconclusive: -32.6% [inhibitor]"},
      {"smiles": "COc1ccccc1CNC(=O)CCCc1nnc2n(CC(C)C)c(=O)c3sccc3n12", "activity change, negative = inhibition": "inactive: 2.57%"},
      {"smiles": "CCOC(=O)c1ccc(NC(=O)CSc2nnc(-c3cccs3)n2CC)cc1", "Potency": "inconclusive: 14.1 µM [inhibitor, single point]"},
      {"smiles": "O=[N+]([O-])c1cc(CN2CCCC2)c2cccnc2c1O", "Potency": "active: 1.78 µM"},
      {"smiles": "FC(F)(F)c1nc(=S)c2ccccc2[nH]1", "activity change, negative = inhibition": "inactive: 11.1%"},
      {"smiles": "Cc1cccc(Cn2cc(C(=O)Nc3ccc(F)c(C(F)(F)F)c3)ccc2=O)c1", "activity change, negative = inhibition": "inactive: -27.3%"},
      {"smiles": "N/C(CCS(=O)(=O)c1ccc(Cl)cc1)=N\\OC(=O)c1ccc(Cl)cc1", "Potency": "inconclusive: 25.1 µM [inhibitor, partial curve]"},
      {"smiles": "O=S(=O)(c1ccc(Cl)nc1)N1CCCCC1", "Potency": "inconclusive: 100 µM [inhibitor, single point]"},
      {"smiles": "CCCCCC(/C=N/Nc1ccc(S(=O)(=O)N2CCOCC2)cc1[N+](=O)[O-])=C\\c1ccccc1", "Potency": "inconclusive: 39.8 µM [inhibitor, single point]"},
      {"smiles": "CC(=O)Nc1ccc(-c2csc(NCCc3ccccc3)n2)cc1", "Potency": "inconclusive: 25.1 µM [inhibitor, single point]"},
      {"smiles": "COc1ccc(S(=O)(=O)n2nc(OC(C)=O)cc2N(C(C)=O)C(C)=O)cc1", "Potency": "inconclusive: 79.4 µM [inhibitor, single point]"},
      {"smiles": "CCOc1ccc2nc(NC(=O)CSc3nnnn3C3CCCCC3)sc2c1", "Potency": "inconclusive: 2.51 µM [inhibitor, full curve, poor fit]"},
      {"smiles": "CC(C)[C@H](NS(=O)(=O)c1ccc2c(c1)OCCO2)C(=O)OCC(=O)Nc1ccccc1", "activity change, negative = inhibition": "inactive: 2.48%"},
      {"smiles": "Oc1c(Cl)cc(Cl)cc1C=Nc1ccccc1N1CCCC1", "Potency": "inconclusive: 0.708 µM [inhibitor, full curve, poor fit]"},
      {"smiles": "COC(=O)c1ccc(COc2ccc(/C=N/Nc3nc(C)cc(=O)[nH]3)cc2)cc1", "Potency": "active: 20 µM"},
      {"smiles": "O=C(O)/C=C/C(=O)N1Cc2cc3ccccc3nc2C1", "Potency": "inconclusive: 50.1 µM [inhibitor, partial curve, poor fit]"},
      {"smiles": "Cn1cc(S(=O)(=O)c2ccccc2)c(=O)c2cc(F)c(N3CCN(c4ccccc4)CC3)cc21", "Potency": "inconclusive: 3.55 µM [inhibitor, single point]"},
      {"smiles": "O=C(N/N=C/c1c[nH]c2ccccc12)c1cc2ccccc2o1", "activity change, negative = inhibition": "inconclusive: -49.9% [inhibitor]"},
      {"smiles": "Cc1cc(C)cc(NC(=O)c2cc(S(=O)(=O)NCc3ccco3)ccc2F)c1", "Potency": "inconclusive: 89.1 µM [inhibitor, single point]"},
      {"smiles": "COc1cc(C2C(C#N)=C(N)Oc3n[nH]c(C)c32)cc2c1OCO2", "note": "(configuration not stated)", "Potency": "inconclusive: 39.8 µM [inhibitor, single point]"},
      {"smiles": "O=C(O)c1[nH]c2ccccc2c1NS(=O)(=O)c1ccc(F)cc1", "activity change, negative = inhibition": "inconclusive: -63.2% [inhibitor]"},
      {"smiles": "Cc1cc(C)n(-c2ccc(C(=O)OCC(=O)c3ccc(Br)s3)cc2)n1", "Potency": "inconclusive: 10 µM [inhibitor, full curve]"},
      {"smiles": "CCC(CC)c1nc(C(N)=O)c2[nH]c(=O)n(-c3ccc(OC)c(OC)c3)c2n1", "activity change, negative = inhibition": "inconclusive: -31.8% [inhibitor]"},
      {"smiles": "COc1ccc(-c2onc(C)c2C)cc1S(=O)(=O)N1c2ccccc2CC1C", "note": "(configuration not stated)", "Potency": "inconclusive: 89.1 µM [inhibitor, single point]"},
      {"smiles": "O=C(NCCc1csc(-c2ccc(Cl)cc2)n1)c1cccs1", "activity change, negative = inhibition": "inactive: -2.85%"},
      {"smiles": "COc1ccc(CNc2cc(C)cc(C)c2)cc1OC", "Potency": "inconclusive: 39.8 µM [inhibitor, single point]"},
      {"smiles": "O=C(c1ccco1)N1CCN(c2nc3ccsc3c(=O)s2)CC1", "Potency": "inconclusive: 15.8 µM [inhibitor, full curve, poor fit]"},
      {"smiles": "CCc1ccc(CNCc2c(C(=O)O)n(Cc3cccc(F)c3)c3cc(OC)ccc23)cc1", "Potency": "inconclusive: 17.8 µM [inhibitor, partial curve]"},
      {"smiles": "O=C(Nc1ccccc1Br)C1CCCN(S(=O)(=O)c2cccc3nsnc23)C1", "note": "(configuration not stated)", "activity change, negative = inhibition": "inactive: 20.1%"},
      {"smiles": "Cc1cccc(NC(=O)c2c(NC(=O)C(F)(F)F)sc3c2CCCCC3)c1", "activity change, negative = inhibition": "inconclusive: -94.1% [inhibitor]"},
      {"smiles": "O=C(O)c1ccc(N/N=C/C=C/c2ccc([N+](=O)[O-])o2)cc1", "Potency": "active: 3.16 µM"},
      {"smiles": "O=C1CC(c2ccccc2)Cc2[nH]c(=O)c(C(=O)Nc3cccc(F)c3)cc21", "note": "(configuration not stated)", "Potency": "inconclusive: 89.1 µM [inhibitor, single point]"},
      {"smiles": "CCOC(=O)c1sc(=S)n(CC)c1NC(=O)c1ccccc1", "activity change, negative = inhibition": "inconclusive: -37.2% [inhibitor]"},
      {"smiles": "O=C(NC1CCCC1)C1CC(c2ccc(F)cc2)=NO1", "note": "(configuration not stated)", "Potency": "inconclusive: 35.5 µM [inhibitor, partial curve, poor fit]"},
      {"smiles": "O=C(c1ccc(Br)s1)N1CCCC1", "Potency": "inconclusive: 89.1 µM [inhibitor, single point]"},
      {"smiles": "CCOc1ccc(C(CC(=O)O)N2Cc3ccccc3C2=O)cc1OC", "note": "(configuration not stated)", "activity change, negative = inhibition": "inactive: -4.23%"},
      {"smiles": "Cc1ccc(-c2nn3c(C)nnc3s2)cc1NC(=O)c1ccco1", "Potency": "inconclusive: 89.1 µM [inhibitor, single point]"},
      {"smiles": "CCn1c(CSc2nnc(-c3ccncc3)n2CCOC)nc2cc(C(=O)O)ccc21", "Potency": "inconclusive: 89.1 µM [inhibitor, single point]"}
    ]}
  ]
}
